System: Aβ1–42
Test: Brain total Aβ1–42 content by mouse ELISA kit
Type: in vivo
Conditions: mice; T14-A24 10 mg/kg po, donepezil 15 mg/kg po; vs model group

SMILES: COc1cc2c(cc1OC)C(=O)C(CC1CCN(Cc3ccccc3)CC1)C2 (stereo not shown) [Donepezil]
- total level of Aβ1–42 in brain: remarkably decreased
